Values quoted from earlier work as cited in patent US20080161607A1, “Processes for preparation of polymorphic form II of sertraline hydrochloride” (Teva Pharmaceuticals USA, Inc., priority 2002, published 2008).

Settings: disclosed in U.S. Pat. No. 5,248,699; cited from earlier work

## CN[C@H]1CC[C@@H](c2ccc(Cl)c(Cl)c2)c2ccccc21.Cl [Form II, (1S-cis)-4-(3,4 dichlorophenyl)-1,2,3,4-tetrahydro-N-methyl-1-naphthalenamine hydrochloride]
  thermodynamic stability of crystalline form: metastable
